Data as given in article PMC7866192.

Sequences of proteins named here, by UniProt entry; tags and fusion partners are left off. A change or cut given only in a name is not applied to a line headed by its entry.
UniProt A0A8F2YJ43: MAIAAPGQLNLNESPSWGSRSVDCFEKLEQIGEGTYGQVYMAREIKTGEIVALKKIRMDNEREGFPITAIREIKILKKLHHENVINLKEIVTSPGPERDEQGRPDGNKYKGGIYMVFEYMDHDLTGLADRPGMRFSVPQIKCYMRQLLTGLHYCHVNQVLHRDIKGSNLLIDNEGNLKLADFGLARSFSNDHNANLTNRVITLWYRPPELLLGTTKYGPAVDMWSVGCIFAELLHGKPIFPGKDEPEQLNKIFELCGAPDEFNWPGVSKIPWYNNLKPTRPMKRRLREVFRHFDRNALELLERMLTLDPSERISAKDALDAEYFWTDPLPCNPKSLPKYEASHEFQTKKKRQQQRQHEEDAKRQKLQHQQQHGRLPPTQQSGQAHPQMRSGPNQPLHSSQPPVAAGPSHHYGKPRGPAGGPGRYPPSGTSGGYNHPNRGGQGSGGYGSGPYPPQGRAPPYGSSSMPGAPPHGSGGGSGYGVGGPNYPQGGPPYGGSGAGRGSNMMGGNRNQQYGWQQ
UniProt A0A8F2YJJ4: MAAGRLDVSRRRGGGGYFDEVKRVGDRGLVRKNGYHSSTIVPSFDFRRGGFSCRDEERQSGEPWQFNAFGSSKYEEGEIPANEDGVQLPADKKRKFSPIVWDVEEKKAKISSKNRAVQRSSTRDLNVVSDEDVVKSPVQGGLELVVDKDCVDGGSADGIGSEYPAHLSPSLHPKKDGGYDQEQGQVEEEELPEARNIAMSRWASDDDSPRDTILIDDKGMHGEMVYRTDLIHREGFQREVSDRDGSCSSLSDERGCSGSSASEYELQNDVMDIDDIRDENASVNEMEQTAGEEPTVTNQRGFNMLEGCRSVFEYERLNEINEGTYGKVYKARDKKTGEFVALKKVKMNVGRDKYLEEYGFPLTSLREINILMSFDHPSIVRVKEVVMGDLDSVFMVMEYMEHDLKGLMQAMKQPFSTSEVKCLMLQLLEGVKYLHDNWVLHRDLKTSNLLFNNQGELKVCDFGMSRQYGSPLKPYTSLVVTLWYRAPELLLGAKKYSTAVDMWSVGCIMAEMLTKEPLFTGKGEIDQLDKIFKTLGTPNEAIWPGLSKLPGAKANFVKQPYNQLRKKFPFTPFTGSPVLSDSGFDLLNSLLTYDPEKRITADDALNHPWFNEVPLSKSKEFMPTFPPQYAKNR
UniProt A0A8F2YJH9: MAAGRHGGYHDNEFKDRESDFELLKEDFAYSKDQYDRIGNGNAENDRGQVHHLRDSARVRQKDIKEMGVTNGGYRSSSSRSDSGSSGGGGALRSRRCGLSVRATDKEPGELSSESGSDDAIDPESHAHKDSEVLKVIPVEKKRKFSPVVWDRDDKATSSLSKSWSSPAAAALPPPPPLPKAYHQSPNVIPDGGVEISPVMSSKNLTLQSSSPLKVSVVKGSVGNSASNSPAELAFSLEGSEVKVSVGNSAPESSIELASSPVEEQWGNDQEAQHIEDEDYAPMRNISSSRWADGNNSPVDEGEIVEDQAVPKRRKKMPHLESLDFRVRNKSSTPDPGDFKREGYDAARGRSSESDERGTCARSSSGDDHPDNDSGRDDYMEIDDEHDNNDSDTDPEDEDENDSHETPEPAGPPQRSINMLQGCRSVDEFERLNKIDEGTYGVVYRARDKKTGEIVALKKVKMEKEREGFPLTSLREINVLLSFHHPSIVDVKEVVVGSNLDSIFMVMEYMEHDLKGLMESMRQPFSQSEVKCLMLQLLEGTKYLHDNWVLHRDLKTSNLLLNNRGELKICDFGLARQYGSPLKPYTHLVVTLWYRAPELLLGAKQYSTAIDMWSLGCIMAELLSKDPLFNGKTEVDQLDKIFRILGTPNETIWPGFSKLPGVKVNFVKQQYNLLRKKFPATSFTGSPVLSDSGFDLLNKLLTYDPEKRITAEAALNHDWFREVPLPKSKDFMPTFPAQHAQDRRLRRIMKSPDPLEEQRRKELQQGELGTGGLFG
UniProt A0A8F3BS08: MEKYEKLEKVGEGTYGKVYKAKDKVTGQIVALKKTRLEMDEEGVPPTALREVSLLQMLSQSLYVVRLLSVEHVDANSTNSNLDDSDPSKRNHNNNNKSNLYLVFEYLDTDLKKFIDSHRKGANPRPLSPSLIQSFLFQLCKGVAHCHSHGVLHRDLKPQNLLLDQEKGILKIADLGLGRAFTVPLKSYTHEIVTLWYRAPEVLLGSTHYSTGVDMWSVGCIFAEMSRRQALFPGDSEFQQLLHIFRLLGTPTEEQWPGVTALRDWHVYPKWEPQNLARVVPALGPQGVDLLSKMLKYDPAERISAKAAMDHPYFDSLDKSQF
UniProt A0A8F3BQL1: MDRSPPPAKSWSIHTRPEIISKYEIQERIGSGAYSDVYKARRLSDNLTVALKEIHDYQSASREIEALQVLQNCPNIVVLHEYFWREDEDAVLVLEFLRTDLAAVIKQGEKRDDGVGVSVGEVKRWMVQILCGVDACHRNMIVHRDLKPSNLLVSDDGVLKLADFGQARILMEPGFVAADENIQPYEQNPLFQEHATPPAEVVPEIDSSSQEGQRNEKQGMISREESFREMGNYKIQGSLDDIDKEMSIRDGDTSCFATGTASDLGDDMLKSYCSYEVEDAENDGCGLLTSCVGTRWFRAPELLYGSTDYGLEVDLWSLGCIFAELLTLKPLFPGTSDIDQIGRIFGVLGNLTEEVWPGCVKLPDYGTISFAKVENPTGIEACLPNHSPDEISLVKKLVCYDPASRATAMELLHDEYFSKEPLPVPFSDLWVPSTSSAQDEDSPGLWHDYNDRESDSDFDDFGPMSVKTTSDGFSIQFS
UniProt A0A8F2YJ19: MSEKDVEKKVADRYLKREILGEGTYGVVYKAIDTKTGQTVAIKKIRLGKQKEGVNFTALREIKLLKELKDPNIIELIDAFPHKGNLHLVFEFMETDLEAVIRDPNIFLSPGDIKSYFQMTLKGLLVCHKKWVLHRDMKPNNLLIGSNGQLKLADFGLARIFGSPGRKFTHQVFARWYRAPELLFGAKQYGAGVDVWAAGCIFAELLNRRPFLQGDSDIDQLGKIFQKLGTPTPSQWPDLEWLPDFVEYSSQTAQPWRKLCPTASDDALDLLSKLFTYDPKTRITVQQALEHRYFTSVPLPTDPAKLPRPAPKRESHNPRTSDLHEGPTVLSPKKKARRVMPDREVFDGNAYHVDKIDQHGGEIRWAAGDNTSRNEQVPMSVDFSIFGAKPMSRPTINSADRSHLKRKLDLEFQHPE
UniProt A0A8F2YJ26: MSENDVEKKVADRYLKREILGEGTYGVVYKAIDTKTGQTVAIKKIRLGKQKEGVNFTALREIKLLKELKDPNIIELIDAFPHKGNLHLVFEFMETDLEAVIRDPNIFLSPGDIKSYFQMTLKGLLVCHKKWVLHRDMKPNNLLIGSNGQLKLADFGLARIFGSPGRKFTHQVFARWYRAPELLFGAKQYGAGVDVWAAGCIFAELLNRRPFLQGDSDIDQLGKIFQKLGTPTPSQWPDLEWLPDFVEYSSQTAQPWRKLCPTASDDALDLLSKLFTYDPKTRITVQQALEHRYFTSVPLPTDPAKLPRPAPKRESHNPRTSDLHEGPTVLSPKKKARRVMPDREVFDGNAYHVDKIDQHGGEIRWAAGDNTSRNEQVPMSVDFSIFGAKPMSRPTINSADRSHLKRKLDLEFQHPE
UniProt A0A8F2YJ49: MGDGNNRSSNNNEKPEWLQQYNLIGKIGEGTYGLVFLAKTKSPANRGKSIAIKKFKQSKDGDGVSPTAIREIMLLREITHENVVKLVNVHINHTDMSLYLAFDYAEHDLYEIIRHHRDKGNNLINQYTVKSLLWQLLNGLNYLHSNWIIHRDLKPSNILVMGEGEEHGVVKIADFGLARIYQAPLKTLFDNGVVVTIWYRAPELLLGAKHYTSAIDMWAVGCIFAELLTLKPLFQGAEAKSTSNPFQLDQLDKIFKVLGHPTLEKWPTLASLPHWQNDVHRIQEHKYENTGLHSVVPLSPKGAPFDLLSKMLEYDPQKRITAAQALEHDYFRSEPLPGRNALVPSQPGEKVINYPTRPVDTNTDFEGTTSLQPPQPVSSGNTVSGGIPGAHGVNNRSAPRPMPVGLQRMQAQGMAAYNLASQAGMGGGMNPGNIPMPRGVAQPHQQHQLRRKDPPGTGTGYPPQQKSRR
UniProt A0A8F3BPS4: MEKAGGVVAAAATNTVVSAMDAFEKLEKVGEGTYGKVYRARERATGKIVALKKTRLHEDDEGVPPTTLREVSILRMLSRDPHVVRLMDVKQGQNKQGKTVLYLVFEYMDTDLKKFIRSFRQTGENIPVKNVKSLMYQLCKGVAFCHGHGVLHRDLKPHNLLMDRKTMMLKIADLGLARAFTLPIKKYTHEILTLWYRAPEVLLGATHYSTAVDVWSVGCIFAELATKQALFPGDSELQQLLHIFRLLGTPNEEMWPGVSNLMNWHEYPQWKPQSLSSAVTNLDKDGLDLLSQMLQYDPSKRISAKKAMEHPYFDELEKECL

The substances below were run against PtoCYCD3;3 (Populus tomentosa) (assay: two-hybrid; PtoCYCD3;3 in pGBKT7 (BD), PtoCDKs in pGADT7 (AD); yeast strain AH109; growth on SD/-Leu/-Trp or SD/-Leu/-Trp/-His/+x-α-gal).

binding, binds:
PtoCDKC;2 (from UniProt A0A8F2YJ43), PtoCDKG;4 (from UniProt A0A8F2YJJ4), PtoCDKG;3 (from UniProt A0A8F2YJH9), PtoCDKB1;2 (from UniProt A0A8F3BS08), PtoCDKF;1 (from UniProt A0A8F3BQL1), PtoCDKD;1 (from UniProt A0A8F2YJ19), PtoCDKD;2 (from UniProt A0A8F2YJ26), PtoCDKE;2 (from UniProt A0A8F2YJ49), PtoCDKB2;1 (from UniProt A0A8F3BPS4)

No constants are given. Whether binding was seen depends on the method and setting. Binding can be weak; no strength is given.
